Drawing on the supplement of paper PMC11348887, this text covers nucleus area z-score for 40 compounds.

Where a name gives a salt, the structure may show the parent alone. The list shows a part of the results. Most values lie at the level of the controls, where differences are scatter.

The test concerns hPSC-derived cortical neurons (WA09). The test can be described thus: nucleus area z-score vs screen plate; higher = larger nuclei (more mature). The settings on record: 5 µM; treatment: days 7-14 after plating, readout day 21.
`NC(=O)CC[C@H](N)C(=O)O` [L-Glutamine] yielded a nucleus area z-score of 0.174.

Take `Cc1[nH]c2ccccc2c1CCNCc1ccc(/C=C/C(=O)NO)cc1` [Panobinostat (LBH589)]: the nucleus area z-score was -6.31. For the compound `CCCC(=O)Nc1ncnc2c1ncn2[C@@H]1O[C@@H]2COP(=O)(O)O[C@H]2[C@H]1OC(=O)CCC` [Dibutyryl-cAMP (Bucladesine)], the nucleus area z-score was -0.0438.

With `CC(C)Oc1ccc(C(=O)N[C@H](CNC(=O)CN(C)C)Cc2ccc(-c3cn4cccc([C@H](C)O)c4n3)cc2)cc1Cl`, the nucleus area z-score was -0.327. The value for `Nc1nc(N)c2nc(-c3ccccc3)c(N)nc2n1` [Triamterene] was 1.04; that for `COc1c(C)c2c(c(O)c1C/C=C(\C)CCC(=O)OCCN1CCOCC1)C(=O)OC2` [Mycophenolate Mofetil] was -0.21; that for `CC(C(=O)O)c1cccc(Oc2ccccc2)c1` (stereo not given) [Fenoprofen Calcium] was 1.3. The figure for `C[C@H](CCC(=O)O)[C@H]1CC[C@H]2[C@@H]3C[C@H](O)[C@@H]4C[C@H](O)CC[C@]4(C)[C@H]3CC[C@]12C` [Hyodeoxycholic acid (HDCA)] is 0.48; for `C[N+](C)(C)CCO.[Cl-]` [Choline Chloride] it is 0.683. Turning to `Nc1ccc(S(=O)(=O)NC(=O)c2ccccc2)cc1` [Sulfabenzamide], the nucleus area z-score is 0.557.

In the case of `C=CC(=O)Nc1cccc(C)c1Nc1ncc2cc(-c3c(Cl)c(OC)cc(OC)c3Cl)ccc2n1`, the nucleus area z-score amounted to 0.366. The figure for `COc1cccc2c1C(=O)c1c(O)c3c(c(O)c1C2=O)C[C@@](O)(C(=O)CO)C[C@@H]3O[C@H]1C[C@H](N)[C@H](O)[C@H](C)O1` [Doxorubicin (Adriamycin)] is -3.44; for `O=C(O)c1cccc(-c2noc(-c3ccccc3F)n2)c1` [Ataluren (PTC124)] it is 0.384; for `O=C(NC(NC(=S)Nc1ccc(F)c([N+](=O)[O-])c1)C(Cl)(Cl)Cl)C(c1ccccc1)c1ccccc1` (stereo not given) it is 2.5.

In turn, `CC#CC(=O)N1CC[C@@H](n2c(=O)n(-c3ccc(Oc4ccccc4)cc3)c3c(N)ncnc32)C1` yielded a nucleus area z-score of 1.77. Turning to `Nc1nc(=O)c2c([nH]1)NC[C@H](CNc1ccc(C(=O)N[C@@H](CCC(=O)O)C(=O)O)cc1)N2C=O` [Calcium Levofolinate], the nucleus area z-score was -7.67. The value for `OCC(O)CN1CCN(c2ccccc2)CC1` (stereo not given) [Dropropizine] was 0.016; that for `O=C(O)CCC(=O)c1ccc(-c2ccccc2)cc1` [Fenbufen] was -3.83; that for `Cc1cn[nH]c1` [Fomepizole] was 2.01. For `COc1nc(C)nc(Cl)c1NC1=NCCN1` [Moxonidine], the nucleus area z-score is -1.92. The value for `CC(C)COc1ccc(CNC(=O)N(Cc2ccc(F)cc2)C2CCN(C)CC2)cc1` [Pimavanserin] was -12. The value for `C[C@@H](c1ncncc1F)[C@](O)(Cn1cncn1)c1ccc(F)cc1F` [Voriconazole] was 0.128; that for `Cc1ncc(CO)c(CO)c1O` [Pyridoxine HCl] was -0.0311. The value for `O=C1c2c(O)cc(O)cc2O[C@H](c2cc(O)c(O)c(O)c2)[C@H]1O` [Dihydromyricetin] was -1.69. The compound `Cc1ccc(-n2nc(C(C)(C)C)cc2NC(=O)Nc2ccc(OCCN3CCOCC3)c3ccccc23)cc1` [BIRB 796 (Doramapimod)] yielded a nucleus area z-score of 0.122.

Regarding `O=C(NNc1ccccc1)c1ccncc1`, the nucleus area z-score came to 0.167.

Consider `C=CC1=C(C(=O)O)N2C(=O)[C@@H](NC(=O)/C(=N\OCC(=O)O)c3csc(N)n3)[C@H]2SC1` [Cefixime], for which the nucleus area z-score stood at 0.113. The figure for `CC(C)(C)C#Cc1cc(N(C(=O)[C@H]2CC[C@H](C)CC2)[C@H]2CC[C@H](O)CC2)c(C(=O)O)s1` [VX-222 (VCH-222_ Lomibuvir)] is -0.34; for `COc1ccc(S(=O)(=O)Nc2nc(-c3cccc([N+](=O)[O-])c3)cs2)cc1OC` it is 0.712. With `CCN1CCN(Cc2ccc(Nc3ncc(F)c(-c4cc(F)c5nc(C)n(C(C)C)c5c4)n3)nc2)CC1`, the nucleus area z-score is -12.6. `CC(N)C12CC3CC(CC(C3)C1)C2` (stereo not given) [Rimantadine] returned a nucleus area z-score of 0.0352. The figure for `C[N+](C)(C)CCOC(=O)CCC(=O)OCC[N+](C)(C)C` [Succinylcholine Chloride Dihydrate] is -0.0246. The value for `CO[C@H]1C[C@@H]2CC[C@@H](C)[C@@](O)(O2)C(=O)C(=O)N2CCCC[C@H]2C(=O)O[C@H]([C@H](C)C[C@@H]2CC[C@@H](OCCO)[C@H](OC)C2)CC(=O)[C@H](C)/C=C(\C)[C@@H](O)[C@@H](OC)C(=O)[C@H](C)C[C@H](C)/C=C/C=C/C=C/1C` [Everolimus (RAD001)] was -3.07; that for `CC(=O)OCC(COC(C)=O)OC(C)=O` [Triacetin] was 0.696. The value for `N=C(N)c1ccc(OCCCCCOc2ccc(C(=N)N)cc2)cc1` [Pentamidine] was -2.74; that for `O=C(Cc1ccc(-c2ccc(OCCN3CCOCC3)cc2)cn1)NCc1ccccc1` was -15.5; that for `COc1ccc(C2CC(c3ccccc3)=NN2c2ccc(S(N)(=O)=O)cc2)cc1` (stereo not given) was 0.372.

On to `CN(C)c1ccc(O)c2c1C[C@H]1C[C@H]3[C@H](N(C)C)C(O)=C(C(N)=O)C(=O)[C@@]3(O)C(O)=C1C2=O` [Minocycline HCl], for which the nucleus area z-score worked out at 0.264. The value for `N[C@@H](Cc1c[nH]c2ccc(O)cc12)C(=O)O` [5-hydroxytryptophan (5-HTP)] was 0.843; that for `CC1=C(C(=O)Nc2cc3cn[nH]c3cc2F)C(c2ccc(C(F)(F)F)cc2)CC(=O)N1` (stereo not given) was -0.827.
